Reference: patent US12702696B2, “Methods and composition for modulating immune response and immune homeostasis” (Massachusetts Institute of Technology, priority 2019, dated 2026)

Tested on: LN-innervating sensory neurons
Assay: Smart-Seq2 scRNA-seq differential gene expression of LN-innervating vs skin-innervating sensory neurons and Neuron Types (Table 1)
Design: species or system mouse
Details: gene upregulated in Neuron Type 2 (NP-like); differential expression between Neuron Types of LN-/skin-innervating sensory neurons

Lap3 was tested. Which “log2 expression fold change” value did it give?
Its value is 1.112.
